Laboratory results published in patent US20200317744A1 (published 2020).

What was measured:
[1] = target: fluorescently labeled chimeric IL-2Rβγc (hIL-2Rβγc) (human); assay: yeast display, flow cytometry, 2 nM hIL-2Rβγc
[2] = target: fluorescently labeled chimeric IL-2Rβγc (hIL-2Rβγc) (human); assay: yeast display, flow cytometry

B1: G1_neo2_36 (designed binder)
chain: STKKLQLQAEHFLLDVQMILNESPEPNEELNRAITDAQSWISTGKIDLDRAEELARNLEKVRDEALKRGIDVRDLVSNAKVIALELK
With B1 the binding [1] was “binds”.

B2: G1_neo2_37 (designed binder)
chain: STKKLQLQAEHFLLDVQMILNESPEPNEELNRCITDAQSWISTGKIDLDRAEECARNLEKVRDEALKRGIDVRDLVSNAKVIALELK
For B2, the binding [1] was “binds”.

B3: G1_neo2_38 (designed binder)
chain: STKKLQLQAEHFLLDVQMILNESPEPNEELNRAITDAQSCISTGKCDLDRAEELARNLEKVRDEALKRGIDVRDLVSNAKVIALELK
B3 was tested, and the binding [1] was “binds”.

B4: G1_neo2_39 (designed binder)
chain: STKKLQLQAEHFLLDVQMILNESPEPNEELNRAITDAQSWISTGKIDLDRAEELCRNLEKVRDEALKRGIDVRDLVSNACVIALELK
B4 was tested, and the binding [1] was “binds”.

B5: G1_neo2_40 (designed binder)
chain: STKKLQLQAEHALLDAQMMLNRSPEPNEKLNRIITTMQSWISTGKIDLDGAKELAKEVEELRQEAEKRGIDVRDLASNLKVILLELA
For B5, the binding [1] was “binds”.

B6: G1_neo2_41 (designed binder)
chain: STKKLQLQAEHALLDAQMMLNRSPEPNEKLNRIITTMQSCISTGKCDLDGAKELAKEVEELRQEAEKRGIDVRDLASNLKVILLELA
With B6 the binding [1] was “binds”.

B7: G1_neo2_42 (designed binder)
chain: STKKIQLQLEHALLDVQMALNRSPEPNESLNRMITWLQSWISTGKIDLDNAQEMAKEAEKIRKEMEKRGIDVRDLISNIIVILLELS
In the case of B7, the binding [1] is reported as “binds”.

B8: G1_neo2_43 (designed binder)
chain: STKKIQLQLEHALLDVQMALNRSPEPNESLNRMITWLQSCISTGKCDLDNAQEMAKEAEKIRKEMEKRGIDVRDLISNIIVILLELS
For B8, the binding [1] was “binds”.

B9: G1_neo2_35 (designed binder)
chain: STKKWQLQAEHALLDWQMALNKSPEPNENLNRAITAAQSWISTGKIDCDKAEDIRRNSDQARREAEKRGIDVRDLISNAQVILLEAC
For B9, the binding [2] was “no binding (tested: 2 nM)”.

B10: G1_neo2_44 (designed binder)
chain: STKKIQLQLEHALLDVQMALNRSPEPNESLNRMITWLQSWISTGKIDLDNAQEMCKEAEKIRKEMEKRGIDVRDLISNICVILLELS
For B10, the binding [2] was “no binding (tested: 2 nM)”.

These are yes or no findings as the source states them, for the method shown. For some of these results: A result given as binding can be weak or reduced; the word gives no strength.
